Test results reported in patent US20200299706A1 (COLD SPRING HARBOR LABORATORY, published 2020).
Results are given in words; binding and its absence hold for the method and conditions named. Some entries that bind do so weakly or less than the wild type.

Assays:
Conditions in all cases: remark: other sources report otherwise
[1] = biological target: T1, EJ2 (Enhancer-of-Jointless-2, Solyc03g114840) SEP4-homolog MADS-box protein (tomato (Solanum lycopersicum)), Q7Y040; assay: yeast two-hybrid, FIG. 10B
T1 chain: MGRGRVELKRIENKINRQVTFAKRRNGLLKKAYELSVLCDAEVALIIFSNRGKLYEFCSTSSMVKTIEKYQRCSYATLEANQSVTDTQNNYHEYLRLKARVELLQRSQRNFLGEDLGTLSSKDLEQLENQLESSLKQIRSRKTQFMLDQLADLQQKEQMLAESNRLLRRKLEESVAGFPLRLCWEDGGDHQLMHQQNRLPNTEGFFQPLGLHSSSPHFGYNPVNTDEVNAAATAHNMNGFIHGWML

[2] = biological target: T1, EJ2 (Enhancer-of-Jointless-2, …); assay: yeast two-hybrid, FIG. 5C
[3] = biological target: T1, EJ2 (Enhancer-of-Jointless-2, …); assay: yeast two-hybrid (Matchmaker Gold; growth on -L-T-H medium)

- binding [1]: binds
- binding [2]: binds
- binding [3]: binds
B1: J2 (Jointless-2, Solyc12g038510) SEP4-homolog MADS-box protein (other)
chain: MGRGRVELKRIENKINRQVTFAKRRNGLLKKAYELSILCDAEVALIIFSSRGKLYEFSSASSMMTTLEKYQQCSYASLDPMLPVSDTQMNYNEYVRLKARVELLQRSQRHILGEDLGTLNSKELEQLEHQLDASLKKVRSKKTQSMLDQLADLQEKEQMLEEANKQLKNKLEESAARIPLGLSWGNNGGQTMEYNRLPPQTTAQPFFQPLRLNSSSPQFGYNPNMGANDHEVNAATTAHNINGFIPGWML
